Measured values published in PMC10242988.
Results are given in words; binding and its absence hold for the method and conditions named. Binding seen in cells or lysates may run through a third protein. Some entries that bind do so weakly or less than the wild type.

Amino acid sequences for entries named in this document (tags omitted).
UniProt O43581: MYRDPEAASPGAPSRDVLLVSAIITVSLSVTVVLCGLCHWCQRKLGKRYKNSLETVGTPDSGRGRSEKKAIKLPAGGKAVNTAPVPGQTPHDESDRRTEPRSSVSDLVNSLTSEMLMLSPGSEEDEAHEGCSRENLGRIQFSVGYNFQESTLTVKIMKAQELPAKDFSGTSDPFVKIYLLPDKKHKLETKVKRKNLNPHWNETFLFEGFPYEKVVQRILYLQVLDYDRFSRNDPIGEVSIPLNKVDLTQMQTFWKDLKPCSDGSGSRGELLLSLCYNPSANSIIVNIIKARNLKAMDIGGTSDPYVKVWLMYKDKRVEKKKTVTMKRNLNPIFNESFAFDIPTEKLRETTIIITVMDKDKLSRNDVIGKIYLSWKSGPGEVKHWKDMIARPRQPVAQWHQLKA
UniProt Q86TM6: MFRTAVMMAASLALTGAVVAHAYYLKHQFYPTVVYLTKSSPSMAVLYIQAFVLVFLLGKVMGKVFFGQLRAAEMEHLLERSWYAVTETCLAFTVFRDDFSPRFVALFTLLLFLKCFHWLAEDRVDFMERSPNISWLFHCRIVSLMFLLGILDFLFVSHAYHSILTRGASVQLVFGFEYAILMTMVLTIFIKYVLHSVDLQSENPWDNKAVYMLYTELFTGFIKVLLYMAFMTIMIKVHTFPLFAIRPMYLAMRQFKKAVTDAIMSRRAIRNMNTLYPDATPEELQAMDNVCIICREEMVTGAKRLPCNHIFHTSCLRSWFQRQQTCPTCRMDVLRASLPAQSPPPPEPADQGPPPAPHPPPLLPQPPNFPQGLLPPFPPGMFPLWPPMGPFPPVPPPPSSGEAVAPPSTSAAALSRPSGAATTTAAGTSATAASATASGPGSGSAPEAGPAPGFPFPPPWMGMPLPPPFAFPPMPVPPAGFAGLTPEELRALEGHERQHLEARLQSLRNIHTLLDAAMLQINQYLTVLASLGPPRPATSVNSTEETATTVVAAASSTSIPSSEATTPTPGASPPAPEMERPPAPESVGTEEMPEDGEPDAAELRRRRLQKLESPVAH

Target: Synaptotagmin 7 (SYT7) (human) (UniProt O43581)
Experiment: co-IP; 1.0-1.2 mg total protein in lysis buffer incubated with anti-KNTC1 or anti-SYT7 antibodies at 4 °C overnight, magnetic beads 2 h at 4 °C, SDS-PAGE and blot

- binding: binds
Substance: SYVN1 (from UniProt Q86TM6 1-617)
